The list shows a part of the results. The main result of the screen is listed elsewhere. These columns were measured beside it and carry no call. Most of these compounds were active or inconclusive in the main read-out, so they are no random draw. Words in brackets tell the shape of the fitted curve; partial curves, single points and poor fits give uncertain potencies.

The record followed here is PubChem BioAssay AID493014 (National Center for Advancing Translational Sciences (NCATS), 2011).

This test in a line: qHTS Assay to Find Inhibitors of Chronic Active B-Cell Receptor Signaling. Particulars: ABC-DLBCL IkBa-CBG/CBR reporter, luminescence ratio (green luciferase fused to IkBa over red control in TMD8 lymphoma cells), 4 h; measured here: CBR red luminescence, cell number. The essentials:
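Concentration-response series (up to 46 uM) were applied to TMD8 dual-reporter cells for 4 h at 37C with doxycycline. Green/red ratio, after filter-overlap correction, defined %Activity; red signal alone was normalised to basal cells and zero luminescence.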
Take `COc1cc(/C=N/Nc2ccc(Cl)c(C(=O)O)c2)ccc1OC(=O)c1ccc(F)cc1`: the AC50 is 3.98 µM [falling, full curve, poor fit].
For `Cc1ccccc1N/N=C/c1sc(=O)n(Cc2cccc(C(=O)O)c2)c1Cl`, the concentration at half-maximal activity (AC50) is 20 µM [falling, partial curve, poor fit].
